Experimental data: PubChem BioAssay AID652243 (Drosophila RNAi Screening Center, 2013)
Purpose: 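Fly genes required for human androgen receptor driven transcription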 (primary screen). Cell system: Drosophila S2R+ cells. Reagents: long dsRNA against Drosophila genes. Duration: 72 h (48 h, then 24 h hormone). Challenge: synthetic androgen R1881 at 10 nM for 24 h. Read-out: 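Firefly light from an androgen-responsive reporter and Renilla control light per well, raw and unnormalised, for each of two replicates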. Reading the numbers: firefly reporter light: higher = more light from androgen-responsive reporter; Renilla control light: higher = more constitutive control signal (cell number, transfection). Active means: 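Hit when the log firefly-to-Renilla ratio dropped or increased by a fixed fold versus the mean of GFP or LacZ controls across duplicate plates; lowering cut given as 1.5 and as 3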. Calls: active = hit: reporter lowered or raised; inactive = no hit.
In all, the deposit lists about 24,000 reagents; below is a random part of those that have a named target and a result. Over the whole deposit, 246 (1%) got an active call. 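Plates not normalised; calls are printed but the firefly/Renilla ratio behind them is not deposited; fold cut for lowering reported inconsistently.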 Raw values vary from plate to plate and are shown uncorrected. A number with no mark means an inactive call. Reagent sequences are not shown. The record does not give: the amount of reagent.

target | dsRNA | firefly reporter light, replicate 1 | firefly reporter light, replicate 2 | Renilla control light, replicate 1 | Renilla control light, replicate 2
Shrm (GeneID 36592) | DRSC06438 | 55026 | 90624 | 1.06e6 | 1.06e6
Shrm (GeneID 36592) | DRSC07221 | 1.48e6 | 1.69e6 | 2.93e6 | 2.61e6
Shrm (GeneID 36592) | DRSC23067 | 6.31e5 | 6.80e5 | 1.67e6 | 1.54e6
Shrm (GeneID 36592) | DRSC25072 | 9.18e5 | 9.67e5 | 8.97e5 | 9.06e5
Shrm (GeneID 36592) | DRSC27498 | 2.88e5 | 2.94e5 | 4.32e5 | 6.77e5
Hrb27C (GeneID 33968) | DRSC03347 | 3.75e5 | 3.98e5 | 9.35e5 | 1.60e6
Hrb27C (GeneID 33968) | DRSC28323 | 2.63e5 | 4.47e5 | 6.76e5 | 1.24e6
SF2 (GeneID 53443) | DRSC16845 | 1.89e5 | 1.78e5 | 4.37e6 | 3.61e6
CG16812 (GeneID 34722) | DRSC02519 | 8.52e5 | 1.03e6 | 2.13e6 | 1.83e6
CG16812 (GeneID 34722) | DRSC25180 | 7.12e5 | 7.02e5 | 9.14e5 | 9.11e5
CG32533 (GeneID 32933) | DRSC19443 | 98685 | 1.04e5 | 4.05e5 | 4.93e5
CG32533 (GeneID 32933) | DRSC19553 | 1.08e5 | 1.05e5 | 4.05e5 | 2.95e5
CG32533 (GeneID 32933) | DRSC24560 | 6.06e5 | 6.68e5 | 9.50e5 | 6.78e5
CG32533 (GeneID 32933) | DRSC39093 | 3.97e5 (active) | 3.34e5 | 1.59e6 | 1.35e6
PVRAP (GeneID 38677) | DRSC10577 | 1.12e5 | 1.33e5 | 1.24e6 | 1.54e6
CG31688 (GeneID 35314) | DRSC02117 | 30402 | 26895 | 7.54e5 | 5.77e5
CG31688 (GeneID 35314) | DRSC02682 | 1.13e5 | 1.94e5 | 1.50e6 | 1.85e6
CG31688 (GeneID 35314) | DRSC25211 | 6.01e5 | 7.30e5 | 5.52e5 | 6.82e5
CG31688 (GeneID 35314) | DRSC26711 | 2.98e5 | 3.03e5 | 8.47e5 | 7.94e5
Ubc10 (GeneID 37035) | DRSC07568 | 77508 | 67912 | 1.07e6 | 1.07e6
Ubc10 (GeneID 37035) | DRSC23795 | 4.76e5 | 2.23e5 | 7.29e5 | 2.42e5
zfh2 (GeneID 43795) | DRSC17178 | 54334 | 47781 | 4.66e5 | 2.86e5
zfh2 (GeneID 43795) | DRSC28010 | 6.21e5 | 3.09e5 | 1.87e6 | 1.44e6
CG3819 (GeneID 40069) | DRSC10378 | 1.55e5 | 1.64e5 | 2.01e6 | 2.32e6
CG3819 (GeneID 40069) | DRSC27675 | 2.84e5 | 1.68e5 | 7.62e5 | 5.80e5

Hits (from the list above):
target | dsRNA | firefly reporter light, replicate 1 | firefly reporter light, replicate 2 | Renilla control light, replicate 1 | Renilla control light, replicate 2
CG32533 (GeneID 32933) | DRSC39093 | 3.97e5 (active) | 3.34e5 | 1.59e6 | 1.35e6
